# Test results published in paper PMC5548489.
# Amino acid sequences for entries named in this document (tags omitted).
# UniProt P03372: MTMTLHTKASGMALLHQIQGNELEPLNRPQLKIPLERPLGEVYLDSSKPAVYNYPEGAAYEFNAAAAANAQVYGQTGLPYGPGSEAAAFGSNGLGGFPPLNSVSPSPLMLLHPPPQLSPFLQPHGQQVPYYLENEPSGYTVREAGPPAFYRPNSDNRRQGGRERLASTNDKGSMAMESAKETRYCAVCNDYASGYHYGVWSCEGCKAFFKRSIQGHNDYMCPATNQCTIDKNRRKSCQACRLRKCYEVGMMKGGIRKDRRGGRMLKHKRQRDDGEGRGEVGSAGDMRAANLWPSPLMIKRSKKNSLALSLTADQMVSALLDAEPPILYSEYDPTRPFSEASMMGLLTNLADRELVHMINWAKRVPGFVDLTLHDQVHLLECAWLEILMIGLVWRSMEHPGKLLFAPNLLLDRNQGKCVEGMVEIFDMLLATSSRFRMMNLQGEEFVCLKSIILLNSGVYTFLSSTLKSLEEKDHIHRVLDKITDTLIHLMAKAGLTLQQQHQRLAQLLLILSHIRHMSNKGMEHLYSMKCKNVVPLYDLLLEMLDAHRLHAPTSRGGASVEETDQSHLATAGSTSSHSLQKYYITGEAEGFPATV
# Biological target: estrogen receptor alpha (ER) (human (endogenous in MCF-7 and ZR-75)) (UniProt P03372)
# Assay: affinity purification with mass spectrometry; anti-ER antibody (Santa Cruz sc-8002) on Dynabeads Protein G, 1.5 mg lysate of MCF-7 or ZR-75 cells overnight at 4°C; cells starved, vehicle or 10 µM ERX-11 for 2 hr, then 10 nM E2 for 2 hr; the named proteins are ER binders whose co-precipitation was disrupted by ERX-11
row,binding,Binder
1,binds,"ADNP (protein, UniProt Q9H2P0 1-1102) MFQLPVNNLGSLRKARKTVKKILSDIGLEYCKEHIEDFKQFEPNDFYLKNTTWEDVGLWDPSLTKNQDYRTKPFCCSACPFSSKFFSAYKSHFRNVHSEDFENRILLNCPYCTFNADKKTLETHIKIFHAPNASAPSSSLSTFKDKNKNDGLKPKQADSVEQAVYYCKKCTYRDPLYEIVRKHIYREHFQHVAAPYIAKAGEKSLNGAVPLGSNAREESSIHCKRCLFMPKSYEALVQHVIEDHERIGYQVTAMIGHTNVVVPRSKPLMLIAPKPQDKKSMGLPPRIGSLASGNVRSLPSQQMVNRLSIPKPNLNSTGVNMMSSVHLQQNNYGVKSVGQGYSVGQSMRLGLGGNAPVSIPQQSQSVKQLLPSGNGRSYGLGSEQRSQAPARYSLQSANASSLSSGQLKSPSLSQSQASRVLGQSSSKPAAAATGPPPGNTSSTQKWKICTICNELFPENVYSVHFEKEHKAEKVPAVANYIMKIHNFTSKCLYCNRYLPTDTLLNHMLIHGLSCPYCRSTFNDVEKMAAHMRMVHIDEEMGPKTDSTLSFDLTLQQGSHTNIHLLVTTYNLRDAPAESVAYHAQNNPPVPPKPQPKVQEKADIPVKSSPQAAVPYKKDVGKTLCPLCFSILKGPISDALAHHLRERHQVIQTVHPVEKKLTYKCIHCLGVYTSNMTASTITLHLVHCRGVGKTQNGQDKTNAPSRLNQSPSLAPVKRTYEQMEFPLLKKRKLDDDSDSPSFFEEKPEEPVVLALDPKGHEDDSYEARKSFLTKYFNKQPYPTRREIEKLAASLWLWKSDIASHFSNKRKKCVRDCEKYKPGVLLGFNMKELNKVKHEMDFDAEWLFENHDEKDSRVNASKTADKKLNLGKEDDSSSDSFENLEEESNESGSPFDPVFEVEPKISNDNPEEHVLKVIPEDASESEEKLDQKEDGSKYETIHLTEEPTKLMHNASDSEVDQDDVVEWKDGASPSESGPGSQQVSDFEDNTCEMKPGTWSDESSQSEDARSSKPAAKKKATMQGDREQLKWKNSSYGKVEGFWSKDQSQWKNASENDERLSNPQIEWQNSTIDSEDGEQFDNMTDGVAEPMHGSLAGVKLSSQQA"
2,binds,"SRRM1 (protein, UniProt Q8IYB3 1-904) MDAGFFRGTSAEQDNRFSNKQKKLLKQLKFAECLEKKVDMSKVNLEVIKPWITKRVTEILGFEDDVVIEFIFNQLEVKNPDSKMMQINLTGFLNGKNAREFMGELWPLLLSAQENIAGIPSAFLELKKEEIKQRQIEQEKLASMKKQDEDKDKRDKEEKESSREKRERSRSPRRRKSRSPSPRRRSSPVRRERKRSHSRSPRHRTKSRSPSPAPEKKEKTPELPEPSVKVKEPSVQEATSTSDILKVPKPEPIPEPKEPSPEKNSKKEKEKEKTRPRSRSRSKSRSRTRSRSPSHTRPRRRHRSRSRSYSPRRRPSPRRRPSPRRRTPPRRMPPPPRHRRSRSPVRRRRRSSASLSGSSSSSSSSRSRSPPKKPPKRTSSPPRKTRRLSPSASPPRRRHRPSPPATPPPKTRHSPTPQQSNRTRKSRVSVSPGRTSGKVTKHKGTEKRESPSPAPKPRKVELSESEEDKGGKMAAADSVQQRRQYRRQNQQSSSDSGSSSSSEDERPKRSHVKNGEVGRRRRHSPSRSASPSPRKRQKETSPRGRRRRSPSPPPTRRRRSPSPAPPPRRRRTPTPPPRRRTPSPPPRRRSPSPRRYSPPIQRRYSPSPPPKRRTASPPPPPKRRASPSPPPKRRVSHSPPPKQRSSPVTKRRSPSLSSKHRKGSSPSRSTREARSPQPNKRHSPSPRPRAPQTSSSPPPVRRGASSSPQRRQSPSPSTRPIRRVSRTPEPKKIKKAASPSPQSVRRVSSSRSVSGSPEPAAKKPPAPPSPVQSQSPSTNWSPAVPVKKAKSPTPSPSPPRNSDQEGGGKKKKKKKDKKHKKDKKHKKHKKHKKEKAVAAAAAAAVTPAAIAAATTTLAQEEPVAAPEPKKETESEAEDNLDDLEKHLREKALRSMRKAQVSPQS"
3,binds,"SMC1A (protein, UniProt Q14683 1-1233) MGFLKLIEIENFKSYKGRQIIGPFQRFTAIIGPNGSGKSNLMDAISFVLGEKTSNLRVKTLRDLIHGAPVGKPAANRAFVSMVYSEEGAEDRTFARVIVGGSSEYKINNKVVQLHEYSEELEKLGILIKARNFLVFQGAVESIAMKNPKERTALFEEISRSGELAQEYDKRKKEMVKAEEDTQFNYHRKKNIAAERKEAKQEKEEADRYQRLKDEVVRAQVQLQLFKLYHNEVEIEKLNKELASKNKEIEKDKKRMDKVEDELKEKKKELGKMMREQQQIEKEIKEKDSELNQKRPQYIKAKENTSHKIKKLEAAKKSLQNAQKHYKKRKGDMDELEKEMLSVEKARQEFEERMEEESQSQGRDLTLEENQVKKYHRLKEEASKRAATLAQELEKFNRDQKADQDRLDLEERKKVETEAKIKQKLREIEENQKRIEKLEEYITTSKQSLEEQKKLEGELTEEVEMAKRRIDEINKELNQVMEQLGDARIDRQESSRQQRKAEIMESIKRLYPGSVYGRLIDLCQPTQKKYQIAVTKVLGKNMDAIIVDSEKTGRDCIQYIKEQRGEPETFLPLDYLEVKPTDEKLRELKGAKLVIDVIRYEPPHIKKALQYACGNALVCDNVEDARRIAFGGHQRHKTVALDGTLFQKSGVISGGASDLKAKARRWDEKAVDKLKEKKERLTEELKEQMKAKRKEAELRQVQSQAHGLQMRLKYSQSDLEQTKTRHLALNLQEKSKLESELANFGPRINDIKRIIQSREREMKDLKEKMNQVEDEVFEEFCREIGVRNIREFEEEKVKRQNEIAKKRLEFENQKTRLGIQLDFEKNQLKEDQDKVHMWEQTVKKDENEIEKLKKEEQRHMKIIDETMAQLQDLKNQHLAKKSEVNDKNHEMEEIRKKLGGANKEMTHLQKEVTAIETKLEQKRSDRHNLLQACKMQDIKLPLSKGTMDDISQEEGSSQGEDSVSGSQRISSIYAREALIEIDYGDLCEDLKDAQAEEEIKQEMNTLQQKLNEQQSVLQRIAAPNMKAMEKLESVRDKFQETSDEFEAARKRAKKAKQAFEQIKKERFDRFNACFESVATNIDEIYKALSRNSSAQAFLGPENPEEPYLDGINYNCVAPGKRFRPMDNLSGGEKTVAALALLFAIHSYKPAPFFVLDEIDAALDNTNIGKVANYIKEQSTCNFQAIVISLKEEFYTKAESLIGVYPEQGDCVISKVLTFDLTKYPDANPNPNEQ"

# More lines, now with the values behind:
row,Binder,binding
1,"Sfrs15 (protein, UniProt O95104 1-1147) MDAVNAFNQELFSLMDMKPPISRAKMILITKAAIKAIKLYKHVVQIVEKFIKKCKPEYKVPGLYVIDSIVRQSRHQFGTDKDVFGPRFSKNITATFQYLYLCPSEDKSKIVRVLNLWQKNGVFKIEIIQPLLDMAAGTSNAAPVAENVTNNEGSPPPPVKVSSEPPTQATPNSVPAVPQLPSSDAFAAVAQLFQTTQGQQLQQILQTFQQPPKPQSPALDNAVMAQVQAITAQLKTTPTQPSEQKAAFPPPEQKTAFDKKLLDRFDYDDEPEAVEESKKEDTTAVTTTAPAAAVPPAPTATVPAAAAPAAASPPPPQAPFGFPGDGMQQPAYTQHQNMDQFQPRMMGIQQDPMHHQVPLPPNGQMPGFGLLPTPPFPPMAQPVIPPTPPVQQPFQASFQAQNEPLTQKPHQQEMEVEQPCIQEVKRHMSDNRKSRSRSASRSPKRRRSRSGSRSRRSRHRRSRSRSRDRRRHSPRSRSQERRDREKERERRQKGLPQVKPETASVCSTTLWVGQLDKRTTQQDVASLLEEFGPIESINMIPPRGCAYIVMVHRQDAYRALQKLSRGNYKVNQKSIKIAWALNKGIKADYKQYWDVELGVTYIPWDKVKPEELESFCEGGMLDSDTLNPDWKGIPKKPENEVAQNGGAETSHTEPVSPIPKPLPVPVPPIPVPAPITVPPPQVPPHQPGPPVVGALQPPAFTPPLGIPPPGFGPGVPPPPPPPPFLRPGFNPMHLPPGFLPPGPPPPITPPVSIPPPHTPPISIPNSTIAGINEDTTKDLSIGNPIPTVVSGARGNAESGDSVKMYGSAVPPAAPTNLPTPPVTQPVSLLGTQGVAPGPVIGLQAPSTGLLGARPGLIPLQRPPGMPPPHLQRFPLMPPRPMPPHMMHRGPPPGPGGFAMPPPHGMKGPFPPHGPFVRPGGMPGLGGPGPGPGGPEDRDGRQQPPQQPQQQPQPQAPQQPQQQQQQQPPPSQQPPPTQQQPQQFRNDNRQQFNSGRDQERFGRRSFGNRVENDRERYGNRNDDRDNSNRDRREWGRRSPDRDRHRDLEERNRRSSGHRDRERDSRDRESRREKEEARGKEKPEVTDRAGGNKTVEPPISQVGNVDTASELEKGVSEAAVLKPSEELPAEATSSVEPEKDSGSAAEAPR",binds
2,"XRN2 (protein, UniProt Q9H0D6 1-950) MGVPAFFRWLSRKYPSIIVNCVEEKPKECNGVKIPVDASKPNPNDVEFDNLYLDMNGIIHPCTHPEDKPAPKNEDEMMVAIFEYIDRLFSIVRPRRLLYMAIDGVAPRAKMNQQRSRRFRASKEGMEAAVEKQRVREEILAKGGFLPPEEIKERFDSNCITPGTEFMDNLAKCLRYYIADRLNNDPGWKNLTVILSDASAPGEGEHKIMDYIRRQRAQPNHDPNTHHCLCGADADLIMLGLATHEPNFTIIREEFKPNKPKPCGLCNQFGHEVKDCEGLPREKKGKHDELADSLPCAEGEFIFLRLNVLREYLERELTMASLPFTFDVERSIDDWVFMCFFVGNDFLPHLPSLEIRENAIDRLVNIYKNVVHKTGGYLTESGYVNLQRVQMIMLAVGEVEDSIFKKRKDDEDSFRRRQKEKRKRMKRDQPAFTPSGILTPHALGSRNSPGSQVASNPRQAAYEMRMQNNSSPSISPNTSFTSDGSPSPLGGIKRKAEDSDSEPEPEDNVRLWEAGWKQRYYKNKFDVDAADEKFRRKVVQSYVEGLCWVLRYYYQGCASWKWYYPFHYAPFASDFEGIADMPSDFEKGTKPFKPLEQLMGVFPAASGNFLPPSWRKLMSDPDSSIIDFYPEDFAIDLNGKKYAWQGVALLPFVDERRLRAALEEVYPDLTPEETRRNSLGGDVLFVGKHHPLHDFILELYQTGSTEPVEVPPELCHGIQGKFSLDEEAILPDQIVCSPVPMLRDLTQNTVVSINFKDPQFAEDYIFKAVMLPGARKPAAVLKPSDWEKSSNGRQWKPQLGFNRDRRPVHLDQAAFRTLGHVMPRGSGTGIYSNAAPPPVTYQGNLYRPLLRGQAQIPKLMSNMRPQDSWRGPPPLFQQQRFDRGVGAEPLLPWNRMLQTQNAAFQPNQYQMLAGPGGYPPRRDDRGGRQGYPREGRKYPLPPPSGRYNWN",binds
3,"TRNT1 (protein, UniProt Q96Q11 42-434) TEGLKSLTELFVKENHELRIAGGAVRDLLNGVKPQDIDFATTATPTQMKEMFQSAGIRMINNRGEKHGTITARLHEENFEITTLRIDVTTDGRHAEVEFTTDWQKDAERRDLTINSMFLGFDGTLFDYFNGYEDLKNKKVRFVGHAKQRIQEDYLRILRYFRFYGRIVDKPGDHDPETLEAIAENAKGLAGISGERIWVELKKILVGNHVNHLIHLIYDLDVAPYIGLPANASLEEFDKVSKNVDGFSPKPVTLLASLFKVQDDVTKLDLRLKIAKEEKNLGLFIVKNRKDLIKATDSSDPLKPYQDFIIDSREPDATTRVCELLKYQGEHCLLKEMQQWSIPPFPVSGHDIRKVGISSGKEIGALLQQLREQWKKSGYQMEKDELLSYIKKT",binds

# These are yes or no findings as the source states them, for the method shown. Binding seen in cells or lysates may run through a third protein. A yes stands for co-enrichment or nearness to the bait. Other partners may have been found.
